{"source": "patent US5891697A", "about": "“Monoterpene synthases from common sage (Salvia officinalis)” (Washington State University Research Foundation, priority 1997, dated 1999)", "origin": "cited, not measured here", "tested_on": "native (+)-sabinene synthase from sage (Salvia officinalis)", "details": "read-out: Km (geranyl diphosphate), literature value; native enzyme; Croteau 1992; cited from earlier work", "note": "At least one structure is not confirmed: it was looked up by name or label, or the drawing left a doubt."}
{"smiles": "CC(C)=CCC/C(C)=C/COP(=O)(O)OP(=O)(O)O", "note": "[geranyl diphosphate]", "values": [{"measurement": "Km", "result": 2000, "unit": "nM"}]}
